Laboratory results: US20040247674A1, “Drug delivery system” (priority 2001, published 2004)
For at least one compound, name, drawing or mass did not settle the structure.

Test: release rates of active agents from core-membrane implants
Type: physicochemical
Conditions: for release rate of estradiol versus target: target 10 μg/day
Text: The implant structure was as disclosed in FIG. 2. The first part of the core consisted of PDMS comprising levonorgestrel and the length was 35 mm. The second part of the core consisted of PEO-PDMS having 50% of PEO, comprising estradiol, and the length was 8 mm.
The core parts were encased in a membrane consisting of PEO-PDMS in a ratio of 10:90. The thickness of the membrane was 0.2 mm and the outer diameter of the implant 2.48 mm.
The implant structure was as disclosed in FIG. 2. The first part of the core consisted of PEO-PDMS in a ratio of 50:50 comprising compound 1 and the length was 34 mm. The second part of the core consisted of PEO-PDMS having 50% of PEO, comprising estradiol, and the length was 6 mm.
The core parts were encased in a membrane consisting of PEO-PDMS in a ratio of 20:80. The thickness of the membrane was 0.2 mm and the outer diameter of the implant 2.48 mm.
The implant structure was as disclosed in FIG. 2. The first part of the core consisted of Pt-catalysed PDMS comprising 60 weight-% MENT having a length of 44 mm and a diameter of 3.0 mm. The second part of the core consisted of peroxide-catalysed PDMS comprising 50 weight-% gestodene having a length of 12 mm and a diameter of 3.0 mm.
Both core parts were encapsulated by a membrane consisting of a mixture of PDMS and trifluoropropyl modified PDMS. The fluoro-content in the membrane varied from 55 weight-% to 75 weight-%. The thickness of the membrane was 0.25 or 0.35 mm and thus the outer diameter of the implant 3.5 or 3.7 mm, respectively.
MENT is represented by the trinagles and gestodene by the lozenges.

Row | SMILES | release rate of levonorgestrel (Example 1 implant (FIG. 9): PDMS core part 35 mm, membrane PEO-PDMS 10:90, 0.2 mm, target 50 μg/day) [μg/day] | release rate of estradiol versus target (Example 1 implant (FIG. 9): PEO-PDMS (50% PEO) core part 8 mm, membrane PEO-PDMS 10:90, 0.2 mm) | release rate of estradiol versus target (Example 2 implant (FIG. 10): PEO-PDMS (50% PEO) core part 6 mm, membrane PEO-PDMS 20:80, 0.2 mm)
1 | C#C[C@]1(O)CC[C@H]2[C@@H]3CCC4=CC(=O)CC[C@@H]4[C@H]3CC[C@@]21CC [levonorgestrel] | 60 to 40 |  | 
2 | C[C@]12CC[C@@H]3c4ccc(O)cc4CC[C@H]3[C@@H]1CC[C@@H]2O [estradiol] |  | target release rate of estradiol was obtained | target release rates were obtained
